Measured values: PMC11781186
These are yes or no findings as the source states them, for the method shown. For part of these data: In cells and extracts the contact can be indirect. Some results given as binding are weak or reduced against the parent protein; the word gives no strength.

Protein sequences, listed by entry. Tags and fused reporters are not part of them. Lines headed by an entry give the natural chain unless they say otherwise; changes in a name come on top. Chains listed by the source or under a name are the forms on record and can include a tag or linker. Residues count along the entry.
GST tagged EphA2 protein (P29317, residues 24-976): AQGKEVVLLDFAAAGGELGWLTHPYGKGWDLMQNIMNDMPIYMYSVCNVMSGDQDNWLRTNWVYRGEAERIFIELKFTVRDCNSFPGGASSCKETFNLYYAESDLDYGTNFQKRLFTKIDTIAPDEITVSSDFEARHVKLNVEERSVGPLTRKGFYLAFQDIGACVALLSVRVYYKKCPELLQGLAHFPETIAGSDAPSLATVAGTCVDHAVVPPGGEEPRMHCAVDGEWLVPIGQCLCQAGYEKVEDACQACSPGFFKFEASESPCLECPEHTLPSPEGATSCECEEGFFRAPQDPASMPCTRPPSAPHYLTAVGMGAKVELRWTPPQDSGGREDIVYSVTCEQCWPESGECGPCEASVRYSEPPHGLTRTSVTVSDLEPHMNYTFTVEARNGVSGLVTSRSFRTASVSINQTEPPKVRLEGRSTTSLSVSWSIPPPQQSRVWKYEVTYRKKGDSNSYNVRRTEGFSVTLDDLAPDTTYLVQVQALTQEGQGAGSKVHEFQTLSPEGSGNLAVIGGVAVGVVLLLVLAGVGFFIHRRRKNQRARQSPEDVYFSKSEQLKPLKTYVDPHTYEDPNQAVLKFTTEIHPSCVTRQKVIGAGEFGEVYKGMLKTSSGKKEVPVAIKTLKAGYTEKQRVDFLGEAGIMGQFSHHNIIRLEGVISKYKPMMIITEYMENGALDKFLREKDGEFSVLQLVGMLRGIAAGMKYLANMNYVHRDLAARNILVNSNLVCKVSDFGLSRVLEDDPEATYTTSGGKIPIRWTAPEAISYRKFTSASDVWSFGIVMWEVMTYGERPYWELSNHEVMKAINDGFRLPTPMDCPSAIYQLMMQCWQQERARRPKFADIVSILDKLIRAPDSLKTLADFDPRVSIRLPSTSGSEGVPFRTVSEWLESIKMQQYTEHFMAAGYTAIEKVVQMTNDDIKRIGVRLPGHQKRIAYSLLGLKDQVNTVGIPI
kinase domain deletion (D606-906) EphA2 (P29317, form named): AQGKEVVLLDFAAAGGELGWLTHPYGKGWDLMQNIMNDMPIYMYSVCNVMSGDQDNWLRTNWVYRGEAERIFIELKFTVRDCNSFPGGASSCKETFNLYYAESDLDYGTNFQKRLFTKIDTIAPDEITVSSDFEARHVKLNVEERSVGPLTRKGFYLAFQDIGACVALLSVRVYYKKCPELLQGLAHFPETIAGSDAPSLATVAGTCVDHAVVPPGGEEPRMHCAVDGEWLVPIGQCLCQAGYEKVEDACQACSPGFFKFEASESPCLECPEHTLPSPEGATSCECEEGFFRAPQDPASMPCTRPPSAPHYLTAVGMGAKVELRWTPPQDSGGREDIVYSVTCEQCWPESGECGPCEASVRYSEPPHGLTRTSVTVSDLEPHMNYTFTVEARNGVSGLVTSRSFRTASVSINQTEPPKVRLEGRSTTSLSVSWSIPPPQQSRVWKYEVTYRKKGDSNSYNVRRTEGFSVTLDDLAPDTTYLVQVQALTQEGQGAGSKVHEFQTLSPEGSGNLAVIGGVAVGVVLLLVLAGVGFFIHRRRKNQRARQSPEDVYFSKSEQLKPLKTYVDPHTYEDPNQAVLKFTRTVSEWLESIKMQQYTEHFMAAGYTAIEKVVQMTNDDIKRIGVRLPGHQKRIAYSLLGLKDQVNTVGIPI
UniProt P45974: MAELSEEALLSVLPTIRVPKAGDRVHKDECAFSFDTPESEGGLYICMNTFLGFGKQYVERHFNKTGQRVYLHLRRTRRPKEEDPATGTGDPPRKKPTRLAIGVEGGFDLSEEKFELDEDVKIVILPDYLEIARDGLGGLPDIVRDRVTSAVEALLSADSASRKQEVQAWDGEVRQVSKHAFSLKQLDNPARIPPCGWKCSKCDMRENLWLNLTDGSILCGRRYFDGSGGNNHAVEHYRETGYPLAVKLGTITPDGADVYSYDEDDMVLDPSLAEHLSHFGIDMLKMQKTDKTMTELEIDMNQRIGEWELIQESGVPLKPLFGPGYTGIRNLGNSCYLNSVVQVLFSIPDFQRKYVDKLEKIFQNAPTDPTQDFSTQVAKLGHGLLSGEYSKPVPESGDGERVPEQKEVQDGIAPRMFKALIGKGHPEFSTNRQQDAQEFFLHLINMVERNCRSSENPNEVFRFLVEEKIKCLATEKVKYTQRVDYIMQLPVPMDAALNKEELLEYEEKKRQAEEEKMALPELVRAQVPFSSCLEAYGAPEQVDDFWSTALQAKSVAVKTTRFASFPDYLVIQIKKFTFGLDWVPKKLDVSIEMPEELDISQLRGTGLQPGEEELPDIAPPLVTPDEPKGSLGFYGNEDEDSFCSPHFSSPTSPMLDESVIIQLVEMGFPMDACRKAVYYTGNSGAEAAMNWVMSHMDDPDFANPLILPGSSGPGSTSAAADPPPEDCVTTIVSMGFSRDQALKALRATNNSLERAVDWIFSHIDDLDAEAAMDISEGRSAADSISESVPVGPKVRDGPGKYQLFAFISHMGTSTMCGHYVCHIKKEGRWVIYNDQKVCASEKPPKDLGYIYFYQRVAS
Flag-USP5 (wild type) (P45974-2, form named): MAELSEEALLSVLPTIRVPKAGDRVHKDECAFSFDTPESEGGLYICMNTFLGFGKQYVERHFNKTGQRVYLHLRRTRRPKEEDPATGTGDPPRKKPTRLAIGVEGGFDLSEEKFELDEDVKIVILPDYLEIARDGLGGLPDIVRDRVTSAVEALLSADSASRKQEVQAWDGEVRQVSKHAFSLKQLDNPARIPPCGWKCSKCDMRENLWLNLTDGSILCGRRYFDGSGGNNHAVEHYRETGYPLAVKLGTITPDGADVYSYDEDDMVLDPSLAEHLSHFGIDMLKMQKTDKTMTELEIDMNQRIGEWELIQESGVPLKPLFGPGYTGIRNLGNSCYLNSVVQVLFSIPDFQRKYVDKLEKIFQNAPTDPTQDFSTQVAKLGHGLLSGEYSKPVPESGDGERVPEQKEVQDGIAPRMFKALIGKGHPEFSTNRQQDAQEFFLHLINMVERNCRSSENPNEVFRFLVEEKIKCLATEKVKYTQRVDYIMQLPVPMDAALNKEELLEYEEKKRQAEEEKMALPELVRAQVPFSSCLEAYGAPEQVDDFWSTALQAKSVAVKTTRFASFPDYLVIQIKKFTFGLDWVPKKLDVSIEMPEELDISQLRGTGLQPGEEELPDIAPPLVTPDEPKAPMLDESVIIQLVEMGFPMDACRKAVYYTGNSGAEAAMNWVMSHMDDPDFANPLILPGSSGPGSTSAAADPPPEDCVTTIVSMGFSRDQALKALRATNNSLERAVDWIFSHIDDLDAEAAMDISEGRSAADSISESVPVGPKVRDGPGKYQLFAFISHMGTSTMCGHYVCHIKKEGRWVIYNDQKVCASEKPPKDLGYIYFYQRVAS

Assays:
[1] = target: kinase domain deletion (D606-906) EphA2 (UniProt P29317); experiment: co-IP; HEK293 cells co-transfected with USP5 and EphA2 expression plasmids (wild type or deletion mutants); whole cell lysates, Protein A/G-Sepharose 4B, overnight at 4°C, 5 washes with RIPA buffer, immunoblotting
[2] = target: ephrinA2 receptor (EphA2), endogenous (human (endogenous in HK1 and 5-8F)) (UniProt P29317); experiment: co-IP; endogenous proteins; whole cell lysates of HK1 and 5-8F NPC cells, Protein A/G-Sepharose 4B, overnight at 4°C, 5 washes with RIPA buffer, immunoblotting
[3] = target: GST tagged EphA2 protein (UniProt P29317); experiment: pull-down; purified His tagged USP5 mixed with purified GST or GST tagged EphA2 immobilized on glutathione beads; immunoblot with antibodies against GST or Histidine; both purified

Flag-USP5 (wild type) (from UniProt P45974-2 1-835) (enzyme)
binding [1]: no binding

ubiquitin specific peptidase 5 (USP5), endogenous (from UniProt P45974 1-858) (enzyme)
binding [2]: binds

His tagged USP5 protein (from UniProt P45974 1-858) (enzyme)
binding [3]: binds
